Earlier results, collected in patent US5965621A, “Methods and compositions for reducing or maintaining body weight in a mammal” (Allergan, priority 1998, dated 1999).

Key:
[1] = tested on: rats; conditions: intravenous injection
[2] = tested on: mice; conditions: oral administration
[3] = tested on: animals and humans; conditions: Donati et al. 1986, Arsenic et al.

## CC(C)(CO)[C@@H](O)C(=O)NCCC(=O)NCCSSCCNC(=O)CCNC(=O)[C@H](O)C(C)(C)CO [Pantethine]
[1]
  LD50: 1690 mg/kg
[2]
  LD50: > 10,000 mg/kg
[3]
  toxicity (shown to be atoxic): atoxic
